Results deposited as PubChem BioAssay AID743121 (NCATS, 2013).
The whole screen tested about 26,000 reagents; below is an unselected part. 167 of them (0.63%) count as active. 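Calls are per gene from RSA p-values that are not deposited; an individual active-marked siRNA can sensitise only weakly.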 Reagents against one gene are numbered here.

- Screen: 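Knock-downs that sensitise breast cancer cells to camptothecin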 (primary screen)
- Cells: MDA-MB-231 cells, a human breast cancer line
- Reagent: single siRNA against human genes, 20 nM siRNA (0.8 pmol per well)
- Duration: 120 h (drug added 48 h after transfection, read 72 h later)
- Treatment: camptothecin 20 nM (about EC30) for 72 h; vehicle 0.1% DMSO in parallel plates
- Measurement: 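Cell viability by ATP luminescence (CellTiter-Glo) as % of non-targeting siRNA wells, and the log2 ratio of viability without drug over viability with camptothecin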
- Direction: log2 vehicle/camptothecin viability: higher = stronger sensitisation to camptothecin; viability with camptothecin and viability without drug: higher = more viable cells
- Hit rule: 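Active genes have an RSA gene-level p-value below 0.001, computed from the ratios of their separate siRNAs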

no.	gene symbol	reagent no.	log2 vehicle/camptothecin viability	viability with camptothecin (% of control)	viability without drug (% of control)	Call
1	ANKFN1	1	-0.0111	79.9	79.3	inactive
2	ANKFN1	2	0.517	64.3	92	inactive
3	ANKFN1	3	-0.268	64.9	53.9	inactive
4	RXFP1	1	0.0988	73	78.2	inactive
5	RXFP1	2	0.254	45.7	54.5	inactive
6	RXFP1	3	-0.34	55.5	43.9	inactive
7	RXFP1	4	-0.0786	69.2	65.6	inactive
8	SCUBE3	1	0.452	26.3	35.9	inactive
9	SCUBE3	2	-0.0968	78.7	73.6	inactive
10	SCUBE3	3	-0.313	113	91.3	inactive
11	SCUBE3	4	-0.176	118	105	inactive
12	ATL1	1	-0.154	106	95.2	inactive
13	ATL1	2	0.389	75.9	99.4	inactive
14	ATL1	3	-0.0278	97	95.1	inactive
15	ATL1	4	-0.507	86.2	60.7	inactive
16	GRHPR	1	-0.062	67.4	64.6	inactive
17	GRHPR	2	-0.541	39.7	27.3	inactive
18	GRHPR	3	-0.454	93.3	68.1	inactive
19	MCTS1	1	-0.398	84.2	63.9	inactive
20	MCTS1	2	-0.188	104	91.5	inactive
21	MCTS1	3	-0.566	78.5	53	inactive
22	MCTS1	4	-0.176	102	90.6	inactive
23	TLN2	1	-0.243	99.4	84	inactive
24	TLN2	2	-0.515	55.9	39.1	inactive
25	TLN2	3	-0.387	122	93	inactive
26	TLN2	4	-0.19	103	90.6	inactive
27	APEX1	1	-0.175	67.8	60.1	inactive
28	APEX1	2	-0.179	83.5	73.8	inactive
29	APEX1	3	-0.173	41.3	36.6	inactive
30	APEX1	4	-0.137	109	98.8	inactive
31	CTSC	1	-0.0641	110	105	inactive
32	CTSC	2	-0.545	63.6	43.6	inactive
33	CTSC	3	-0.493	74.3	52.8	inactive
34	CTSC	4	-0.516	85.9	60.1	inactive
35	CENPN	1	-0.137	107	97.1	inactive
36	CENPN	2	-0.435	78.2	57.9	inactive
37	CENPN	3	-0.143	91.9	83.2	inactive
38	CENPN	4	-0.207	49.3	42.7	inactive
39	CENPN	5	-0.666	39.4	24.8	inactive
40	CENPN	6	0.147	64.5	71.4	inactive
41	CENPN	7	0.283	87.3	106	inactive
42	CENPN	8	-0.435	113	83.4	inactive
43	FEM1B	1	0.0763	95.2	100	inactive
44	FEM1B	2	0.0249	67.7	68.9	inactive
45	FEM1B	3	-0.266	114	95.2	inactive
46	FEM1B	4	-0.0998	108	100	inactive
47	SLC45A2	1	-0.169	83.1	73.9	inactive
48	SLC45A2	2	-0.367	101	78.4	inactive
49	SLC45A2	3	-0.4	88.5	67.1	inactive
50	SLC45A2	4	0.235	86.7	102	inactive
51	SENP5	1	-0.00327	93.7	93.5	inactive
52	SENP5	2	-0.112	78.1	72.3	inactive
53	SENP5	3	-0.18	105	92.8	inactive
54	HTR5A	1	0.00326	87	87.2	inactive
55	HTR5A	2	-0.218	98.6	84.8	inactive
56	HTR5A	3	-0.053	123	118	inactive
57	HTR5A	4	-0.0569	79.2	76.1	inactive
58	LIPH	1	0.465	45.6	62.9	inactive
59	LIPH	2	-0.488	63	44.9	inactive
60	LIPH	3	-0.0307	81.6	79.9	inactive
61	LIPH	4	-0.00357	86.7	86.5	inactive
62	CPA4	1	-0.128	60.6	55.5	inactive
63	CPA4	2	-0.192	104	91.3	inactive
64	CPA4	3	-0.349	73.2	57.5	inactive
65	CPA4	4	0.185	86.7	98.5	inactive
66	MORN1	1	-0.0216	92.5	91.1	inactive
67	MORN1	2	0.000155	106	106	inactive
68	MORN1	3	0.141	107	118	inactive
69	MORN1	4	0.147	82	90.9	inactive
